According to article doi:10.64898/2025.12.19.695442, “TRIM37 recognizes a bipartite degron to ubiquitinate centrosome substrates” (bioRxiv, 2025):
Results are given in words; binding and its absence hold for the method and conditions named. A result given as binding can be weak or reduced; the word gives no strength.

Molecular target: T1, TRIM37 (UniProt O94972 1-964)
T1 construct: TRIM37, E3 ubiquitin ligase; 459-964; The co-immunoprecipitation methods say only 'TRIM37 (1 ug)', the same amount as the Abcam protein of the ubiquitination assay; also called purified TRIM37; source: bought: Abcam ab269066
T1 sequence (looked up): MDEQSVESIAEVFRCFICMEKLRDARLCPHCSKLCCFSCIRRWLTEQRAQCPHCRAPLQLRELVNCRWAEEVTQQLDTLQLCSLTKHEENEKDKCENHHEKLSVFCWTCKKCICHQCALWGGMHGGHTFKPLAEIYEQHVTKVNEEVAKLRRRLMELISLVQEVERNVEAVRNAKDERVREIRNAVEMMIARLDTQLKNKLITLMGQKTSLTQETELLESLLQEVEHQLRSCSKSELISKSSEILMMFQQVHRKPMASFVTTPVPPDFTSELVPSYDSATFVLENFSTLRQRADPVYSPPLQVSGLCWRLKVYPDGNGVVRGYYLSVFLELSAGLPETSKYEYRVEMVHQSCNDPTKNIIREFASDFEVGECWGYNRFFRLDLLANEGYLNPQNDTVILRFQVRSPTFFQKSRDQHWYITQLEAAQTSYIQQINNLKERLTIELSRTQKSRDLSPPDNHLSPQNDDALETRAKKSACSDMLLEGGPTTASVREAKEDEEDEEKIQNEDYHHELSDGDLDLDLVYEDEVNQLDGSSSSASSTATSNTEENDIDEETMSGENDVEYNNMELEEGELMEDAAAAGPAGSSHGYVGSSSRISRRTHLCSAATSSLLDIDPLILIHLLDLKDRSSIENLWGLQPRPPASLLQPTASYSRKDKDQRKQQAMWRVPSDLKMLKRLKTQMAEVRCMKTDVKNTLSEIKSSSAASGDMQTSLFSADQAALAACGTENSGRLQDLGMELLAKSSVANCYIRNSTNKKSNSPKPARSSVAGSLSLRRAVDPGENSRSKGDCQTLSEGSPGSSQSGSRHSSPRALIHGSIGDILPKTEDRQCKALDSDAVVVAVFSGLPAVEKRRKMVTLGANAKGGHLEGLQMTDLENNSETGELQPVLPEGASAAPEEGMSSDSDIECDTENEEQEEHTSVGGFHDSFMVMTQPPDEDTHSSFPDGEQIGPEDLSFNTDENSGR
Assay: pull-down; TRIM37 (1 ug) held on Protein A Dynabeads conjugated with TRIM37 antibody; purified GFP-tagged Cep192 fragments (1 uM), 1 hr at 37°C; washes 150 mM KCl, last wash 500 mM KCl; Western blot against GFP; both purified

| binding | Substance |
| --- | --- |
| binds | GFP-tagged Cep192 C-terminal truncation lacking ASH6 (from UniProt Q8TEP8-3) (domain or fragment) |
| binds | GFP-tagged Cep192 C-terminal truncation lacking ASH7 (from UniProt Q8TEP8-3) (domain or fragment) |
